Laboratory results: PubChem BioAssay AID1259254 (NCATS, 2017)

- Assay: 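Genome-wide screen for genes that prevent DNA re-replication in cancer cells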 (primary screen)
- Cell system: human HCT116 colorectal cancer cells
- Reagents: single siRNA against human genes
- Timing: 3 days
- Measured: 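Nuclei stained with Hoechst and imaged; cell-cycle phase assigned by DNA content; G2 share scaled per plate, non-targeting siRNA 0%, GMNN siRNA 100%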
- Scale: G2 robust z-score and G2 cells, % of GMNN control: higher = more G2 cells, more excess DNA replication; raw share of cells in G2: higher = larger share of cells with G2 DNA content
- Rule for the call: 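An siRNA counts as active if its G2 robust z-score lies at least 5 MADs above the screen median; here such calls match roughly 38% of GMNN control or more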
The deposit covers about 59,000 reagents; shown is an unselected part. About 1,550 of all reagents (2.6%) were called active. 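G2 share is only a proxy for re-replication; each gene was hit by three separate siRNAs, and active genes were retested.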 Raw values are not corrected between plates. Reagents against one gene are numbered here. Not stated in the record: the amount of reagent.

gene,reagent,G2 robust z-score,"G2 cells, % of GMNN control",raw share of cells in G2 (%),Call
SLC61A1,1,2.3,19.1,13.2,inactive
SLC61A1,2,0.763,8.34,9.54,inactive
SLC61A1,3,-0.00377,2.94,5.59,inactive
ANKRD36C,1,-0.0666,2.5,4.72,inactive
ANKRD36C,2,-0.279,1.01,3.92,inactive
ANKRD36C,3,0.837,8.86,8.46,inactive
MMAA,1,-0.602,-1.27,5.35,inactive
MMAA,2,0.756,8.28,7.73,inactive
MMAA,3,-1.21,-5.54,2.37,inactive
SEC63,1,0.0243,3.14,4.57,inactive
SEC63,2,0.774,8.41,9.73,inactive
SEC63,3,0.353,5.45,5.62,inactive
RUFY2,1,0.0229,3.13,3.9,inactive
RUFY2,2,-0.842,-2.96,4.57,inactive
RUFY2,3,0.533,6.72,5.74,inactive
AIF1L,1,0.262,4.81,5.71,inactive
AIF1L,2,0.308,5.13,4.98,inactive
AIF1L,3,-0.339,0.584,2.58,inactive
LAMTOR3,1,-0.665,-1.71,5.06,inactive
LAMTOR3,2,-1.26,-5.92,3.04,inactive
LAMTOR3,3,0.735,8.14,6.29,inactive
SBNO1,1,2.89,23.3,13.5,inactive
SBNO1,2,1.13,10.9,8.67,inactive
SBNO1,3,-0.0818,2.39,3.9,inactive
IQCM,1,-0.0539,2.59,4.58,inactive
IQCM,2,-0.983,-3.95,1.51,inactive
IQCM,3,1.3,12.1,6.96,inactive
RASGRP1,1,-0.744,-2.27,3.83,inactive
RASGRP1,2,0.433,6.02,7.48,inactive
RASGRP1,3,-0.291,0.917,3.51,inactive
ACSM2A,1,0.0976,3.65,7.37,inactive
ACSM2A,2,-0.267,1.09,4.89,inactive
ACSM2A,3,2.24,18.7,13,inactive
RMND5B,1,-0.915,-3.47,3.07,inactive
RMND5B,2,2.56,21,14,inactive
RMND5B,3,3.16,25.2,9.34,inactive
PRL,1,-0.18,1.7,5.56,inactive
PRL,2,-1.16,-5.19,2.7,inactive
PRL,3,0.129,3.88,5.43,inactive
TCF21,1,-0.79,-2.59,4.09,inactive
TCF21,2,0.0926,3.62,5.35,inactive
TCF21,3,-0.856,-3.06,3.51,inactive
CLHC1,1,5.63,42.6,20.2,active
CLHC1,2,3.61,28.3,12.1,inactive
CLHC1,3,-0.202,1.55,3.14,inactive
THEMIS2,1,0.383,5.66,7.89,inactive
THEMIS2,2,-1.17,-5.26,1.75,inactive
THEMIS2,3,-0.637,-1.52,2.85,inactive
PGM5,1,-1.2,-5.49,1.84,inactive
PGM5,2,-0.0299,2.76,5.69,inactive
PGM5,3,-0.667,-1.72,3.78,inactive
SHISA3,1,-1.17,-5.26,2.07,inactive
SHISA3,2,-1.08,-4.65,1.48,inactive
SHISA3,3,-0.354,0.477,3.23,inactive
XKR9,1,1.1,10.7,7.44,inactive
XKR9,2,2.49,20.5,12.3,inactive
XKR9,3,-1.29,-6.11,2.02,inactive
H2AC15,1,-0.324,0.684,5.43,inactive
H2AC15,2,-0.503,-0.569,3.67,inactive
H2AC15,3,-0.753,-2.33,2.52,inactive
OR10G2,1,0.531,6.7,6.93,inactive
OR10G2,2,-0.788,-2.58,2.82,inactive
OR10G2,3,-0.631,-1.48,2.78,inactive
FPR2,1,2.61,21.3,13.5,inactive
FPR2,2,-0.371,0.36,4.64,inactive
FPR2,3,1.37,12.6,7.13,inactive
ZNF496,1,-0.422,-0.000293,2.79,inactive
ZNF496,2,-1.52,-7.7,2.43,inactive
ZNF496,3,-0.495,-0.517,3.47,inactive

Active calls, among the entries above:
gene,reagent,G2 robust z-score,"G2 cells, % of GMNN control",raw share of cells in G2 (%),Call
CLHC1,1,5.63,42.6,20.2,active
